In PubChem BioAssay (EPA / NIEHS):
This list was built around the results that the source calls inconclusive (neither active nor inactive); the mix of calls is not that of the screen. For some of these results: A potency beside an inconclusive call is a rough fit, not a confirmed value. Activity calls are given as the source filed them. Rule for the calls: active = hit-call score of the fitted dose curve at least 0.9, where 1 is the maximum; inconclusive = response in the unintended direction; inactive = score below 0.9.

The chains behind the UniProt entries cited, without tags or fusion partners. Where a name states a change or a piece, a line headed by the entry shows the natural chain unless it says otherwise.
UniProt P10275: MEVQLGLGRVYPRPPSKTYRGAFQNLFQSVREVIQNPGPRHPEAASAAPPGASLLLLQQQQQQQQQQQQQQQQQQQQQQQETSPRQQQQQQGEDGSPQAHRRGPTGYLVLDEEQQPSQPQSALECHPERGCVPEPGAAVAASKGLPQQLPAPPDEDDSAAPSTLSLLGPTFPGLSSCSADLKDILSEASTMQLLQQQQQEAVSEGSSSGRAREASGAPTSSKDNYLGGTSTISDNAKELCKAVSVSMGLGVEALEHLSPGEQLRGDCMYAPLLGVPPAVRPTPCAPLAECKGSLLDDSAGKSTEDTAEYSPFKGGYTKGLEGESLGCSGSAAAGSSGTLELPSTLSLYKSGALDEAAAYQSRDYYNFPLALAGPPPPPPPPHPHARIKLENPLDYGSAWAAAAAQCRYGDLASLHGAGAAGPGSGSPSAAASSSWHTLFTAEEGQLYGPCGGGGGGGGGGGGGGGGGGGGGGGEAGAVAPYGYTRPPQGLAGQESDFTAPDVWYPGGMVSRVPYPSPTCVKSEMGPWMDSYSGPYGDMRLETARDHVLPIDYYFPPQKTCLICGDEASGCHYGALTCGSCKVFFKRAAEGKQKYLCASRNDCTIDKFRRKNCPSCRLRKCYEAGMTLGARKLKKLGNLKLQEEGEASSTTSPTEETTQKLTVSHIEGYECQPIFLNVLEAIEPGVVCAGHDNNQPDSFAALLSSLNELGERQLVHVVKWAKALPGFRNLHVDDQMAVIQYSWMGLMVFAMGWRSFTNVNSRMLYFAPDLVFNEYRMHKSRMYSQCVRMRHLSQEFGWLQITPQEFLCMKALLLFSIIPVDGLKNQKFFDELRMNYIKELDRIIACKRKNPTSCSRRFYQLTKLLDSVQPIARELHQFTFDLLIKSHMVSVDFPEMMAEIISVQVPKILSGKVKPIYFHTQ
UniProt P03372, whole entry, looked up: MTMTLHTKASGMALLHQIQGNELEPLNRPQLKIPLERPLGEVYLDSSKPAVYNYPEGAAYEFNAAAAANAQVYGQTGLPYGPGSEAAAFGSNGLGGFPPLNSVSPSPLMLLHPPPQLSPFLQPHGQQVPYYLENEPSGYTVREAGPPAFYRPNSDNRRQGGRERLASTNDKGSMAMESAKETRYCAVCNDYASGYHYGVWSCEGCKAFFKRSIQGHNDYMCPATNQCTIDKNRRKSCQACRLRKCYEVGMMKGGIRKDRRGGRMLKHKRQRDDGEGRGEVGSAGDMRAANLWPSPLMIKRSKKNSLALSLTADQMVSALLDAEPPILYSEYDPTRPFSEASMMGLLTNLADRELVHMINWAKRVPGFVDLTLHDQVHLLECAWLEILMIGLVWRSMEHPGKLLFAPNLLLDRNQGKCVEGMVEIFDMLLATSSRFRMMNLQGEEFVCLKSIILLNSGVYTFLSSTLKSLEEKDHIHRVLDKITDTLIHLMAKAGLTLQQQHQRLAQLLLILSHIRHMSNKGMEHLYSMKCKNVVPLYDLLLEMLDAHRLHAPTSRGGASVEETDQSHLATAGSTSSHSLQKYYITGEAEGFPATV

biological target: Ratio of Nucleoli Translocation and Cytoplasm, AR (gene 367) (UniProt P10275); assay: UPITT_HCI_U2OS_AR_TIF2_Nucleoli_Cytoplasm_Ratio_Agonist: University of Pittsburgh U2OS Androgen Receptor-Transcriptional Intermediary Factor 2 (AR-TIF2) Agonism High Content Imaging Assay for Ratio of Nucleoli Translocation and Cytoplasm (AID 2284000);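 note: hits raise the red nucleolar to cytoplasm ratio above vehicle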
Procedure, shortened: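 Read-out first: nucleolar-to-cytoplasm ratio of red (AR-RFP) signal, quantified by high-content imaging in U2OS cells co-expressing TIF2-GFP. Activity is scored as signal increase over DMSO. Single-point screening used 20 uM final (0.2% DMSO).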

Structure (SMILES)	outcome	AC50
O=C(c1ccccc1)C1CCCCC1	inactive	–
O=Cc1ccccc1C=O	–	inconclusive: 50 µM
CC1=C(C)S(=O)(=O)CCS1(=O)=O	inactive	–
CCCCCCc1ccc(N)cc1	–	active: 78.4 µM
CCCc1ccc(OC)cc1	–	inconclusive: 50.5 µM
COc1ccc(C(=O)c2ccccc2)c(O)c1	–	inconclusive: 50 µM
CN(C)C(=O)Nc1ccc(Cl)c(Cl)c1	–	inconclusive: 50 µM
CC(C)CCCCCCc1ccc(OCCOCCO)cc1	–	inconclusive: 25000 µM
Cc1ccccc1Cl	–	inconclusive: 50 µM
CCC(=C(c1ccc(O)cc1)c1ccc(OCCN(C)C)cc1)c1ccccc1	–	active: 26.2 µM
CC[C@H](c1ccc(O)cc1)[C@@H](CC)c1ccc(O)cc1	–	active: 50 µM

Grouped by structure: the entries above containing a halogen (2)
Structure (SMILES)	outcome	AC50
CN(C)C(=O)Nc1ccc(Cl)c(Cl)c1	–	inconclusive: 50 µM
Cc1ccccc1Cl	–	inconclusive: 50 µM

Whole records, quoted from the list:
CCC(=C(c1ccc(O)cc1)c1ccc(OCCN(C)C)cc1)c1ccccc1 reads AC50: active: 26.2 µM
O=Cc1ccccc1C=O reads AC50: inconclusive: 50 µM

tested on: not listed separately; assay: CCTE_Simmons_MITO_viability: CellTiter-Glo Viability Assessment for CCTE's HepG2 Seahorse XF Respirometric Screening Assay [post-hoc], Simmons Lab (AID 2284007);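 for AC50: cells exposed to chemical for 90 min before the ATP read; actives lower ATP signal relative to DMSO baseline meaning reduced viability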
Procedure, shortened: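 After the Seahorse oxygen-consumption sequence (basal, FCCP, rotenone/antimycin A; 72 min total), HepG2 viability was scored as ATP content by bioluminescence. Chemicals ran at seven concentrations up to 100 uM final for 90 min.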

Structure (SMILES)	outcome	AC50
CCN(Cc1cccnc1)C(=O)c1cccc(Cl)c1[C@]1(C)C(=O)N(Cc2ccc(OC)cc2OC)c2ccc(Cl)cc21	inactive	–
Cc1c2ccccc2c(C)c2c1ccc1ccccc12	–	active: 19.4 µM
Oc1cc2ccccc2c2ccccc12	–	active: 6.92 µM

tested on: not listed separately; assay: CCTE_Harrill_HTTr_CellCount_MCF7: CCTE's Cell Proliferation Assessment for the High-Throughput Transcriptomics (HTTr) Platform, Harrill Lab (AID 2284012);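 note: count of Hoechst-stained nuclei per well by high-content imaging in MCF-7 cells; cells exposed to compound for six hours; intended direction is loss of nuclei count meaning fewer cells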
Procedure, shortened: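 Chemicals in eight-point dilution series are added to MCF-7 cells for six hours, nuclei are stained with Hoechst and imaged, and per-well nuclei counts are fitted in both directions relative to DMSO controls.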

Structure (SMILES)	AC50	outcome
CCN(Cc1cccnc1)C(=O)c1cccc(Cl)c1[C@]1(C)C(=O)N(Cc2ccc(OC)cc2OC)c2ccc(Cl)cc21	inconclusive: 50 µM	–
O=C(c1ccc(O)cc1O)c1ccc(O)cc1O	inconclusive: 50 µM	–
CC1=C(C)S(=O)(=O)CCS1(=O)=O	–	inactive
c1ccc2c(c1)[nH]c1ccccc12	inconclusive: 50 µM	–
Cc1c2ccccc2c(C)c2c1ccc1ccccc12	–	inactive
Cc1cc(CCN2CCN(c3nsc4ccccc34)CC2)cc2c1NC(=O)CC2(C)C	active: 92.2 µM	–
CN(C)CCOC(c1ccccc1)c1ccccc1	inconclusive: 50 µM	–
C[C@]12CC[C@@H]3c4ccc(O)cc4C[C@@H](CCCCCCCCCS(=O)CCCC(F)(F)C(F)(F)F)[C@H]3[C@@H]1CC[C@@H]2O (stereo partly specified)	inconclusive: 25 µM	–
COc1ccc(C(=O)c2ccccc2)c(O)c1	–	inactive
CN(Cc1cnc2nc(N)nc(N)c2n1)c1ccc(C(=O)N[C@@H](CCC(=O)O)C(=O)O)cc1	inconclusive: 50 µM	–
CCCCOC(=O)c1ccc(O)cc1	–	inactive
Cc1ccc(C)c(C)c1	inconclusive: 50 µM	–
Oc1cc2ccccc2c2ccccc12	–	inactive
CC1(C)C(C=C(Cl)Cl)C1C(=O)OCc1cccc(Oc2ccccc2)c1 (stereo unspecified)	inconclusive: 50 µM	–
COCC(C)OCC(C)OCC(C)O (stereo unspecified)	inconclusive: 50 µM	–
Cc1ccc(C)c(OCCCC(C)(C)C(=O)O)c1	inconclusive: 0.441 µM	inactive
O=Nc1ccc(Nc2ccccc2)cc1	inconclusive: 50 µM	–
NC(=NCCCCCCN=C(N)/N=C(\N)Nc1ccc(Cl)cc1)/N=C(\N)Nc1ccc(Cl)cc1	inconclusive: 50 µM	–
O=C(/C=C/c1ccc(O)cc1)CC(=O)/C=C/c1ccc(O)cc1	–	inactive
CC[C@H](c1ccc(O)cc1)[C@@H](CC)c1ccc(O)cc1	inconclusive: 50 µM	–

tested on: not listed separately; assay: CCTE_Deisenroth_AIME_96WELL_CTox_Inactive: Cytotoxicity Assessment (CTOX) in CCTE's 96-well Estrogen Receptor Transactivation Assay without AIME metabolic competence (metabolism negative), Deisenroth Lab (AID 2284029)
Procedure, shortened: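 Chemicals (0.002 - 200 uM, 10 points) incubated 2 h with alginate-water microspheres (no S9), then medium moved onto VM7Luc4E2 cells for 24 h. Viability by protease-substrate cleavage to fluorescent probe; bidirectional fitting.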

Structure (SMILES)	AC50
C[C@]12CC[C@@H]3c4ccc(O)cc4C[C@@H](CCCCCCCCCS(=O)CCCC(F)(F)C(F)(F)F)[C@H]3[C@@H]1CC[C@@H]2O (stereo partly specified)	inconclusive: 5.81 µM
COc1ccc(C(=O)c2ccccc2)c(O)c1	inconclusive: 22.5 µM
CC1(C)C(C=C(Cl)Cl)C1C(=O)OCc1cccc(Oc2ccccc2)c1 (stereo unspecified)	inconclusive: 100 µM
O=C(/C=C/c1ccc(O)cc1)CC(=O)/C=C/c1ccc(O)cc1	inconclusive: 100 µM

tested on: not listed separately; assay: CCTE_Deisenroth_AIME_384WELL_CTox_Active: Cytotoxicity Assessment (CTOX) in CCTE's 384-well Estrogen Receptor Transactivation Assay with AIME metabolic competence (metabolism positive), Deisenroth Lab (AID 2284037);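 note: chemicals first conditioned 2 h by alginate-bound induced rat liver S9 before cells; activity means signal loss indicating cell death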
Procedure, shortened: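 Cytotoxicity in VM7Luc4E2 breast cells, 24 hour, measured as protease-substrate fluorescence loss, after 2-hour metabolic conditioning with induced rat hepatic S9 in alginate microspheres. Concentrations 0.002 - 200 uM, 10 points, bidirectional fitting.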

Structure (SMILES)	AC50	outcome
CCCCC/C=C\CCC=O	active: 100 µM	–
O=C(c1ccc(O)cc1O)c1ccc(O)cc1O	–	inactive
CC1=C(C)S(=O)(=O)CCS1(=O)=O	active: 172 µM	–
Cc1c2ccccc2c(C)c2c1ccc1ccccc12	–	inactive
COc1cc([N+](=O)[O-])ccc1N	active: 118 µM	–
CC(C)CCCCCCc1ccc(OCCOCCO)cc1	–	inactive
CCCCOC(=O)c1ccc(O)cc1	inconclusive: 19.8 µM	–
Cc1ccc(C)c(C)c1	inconclusive: 100 µM	–
Oc1cc2ccccc2c2ccccc12	active: 19 µM	–
COCC(C)OCC(C)OCC(C)O (stereo unspecified)	inconclusive: 100 µM	–
NC(=NCCCCCCN=C(N)/N=C(\N)Nc1ccc(Cl)cc1)/N=C(\N)Nc1ccc(Cl)cc1	active: 59.5 µM	–

biological target: Estrogen receptor (Homo sapiens) (UniProt P03372); assay: CCTE_Deisenroth_AIME_384WELL_LUC_Inactive: CCTE's 384-well Estrogen Receptor Transactivation Assay without AIME metabolic competence (ERTA luciferase; metabolism negative), Deisenroth Lab (AID 2284038);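 note: VM7Luc4E2 breast cells given medium preincubated 2 h with S9-free microspheres; hits raise estrogen receptor luciferase signal so potencies reflect agonists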
Procedure, shortened: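 Metabolism-negative mode: chemicals (10-point, 0.002–200 uM) held 2 h with alginate-water microspheres, then conditioned medium applied to VM7Luc4E2 cells for 24 h. Luciferase induction referenced to 17beta-estradiol.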

Structure (SMILES)	AC50
CC1=C(C)S(=O)(=O)CCS1(=O)=O	inconclusive: 86.1 µM
Oc1cc2ccccc2c2ccccc12	inconclusive: 7.2 µM
NC(=NCCCCCCN=C(N)/N=C(\N)Nc1ccc(Cl)cc1)/N=C(\N)Nc1ccc(Cl)cc1	inconclusive: 22.8 µM

tested on: not listed separately; assay: CCTE_Deisenroth_AIME_384WELL_CTox_Inactive: Cytotoxicity Assessment (CTOX) in CCTE's 384-well Estrogen Receptor Transactivation Assay without AIME metabolic competence (metabolism negative), Deisenroth Lab (AID 2284039);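 note: cell viability via live-cell protease substrate cleaved to fluorescent probe; cells exposed 24 h to medium preincubated 2 h with alginate-water beads without S9; loss of fluorescence signal means loss of viability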
Procedure, shortened: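 Metabolism-negative arm: chemicals (10-point, 0.002 - 200 uM) preincubated 2 h with alginate-water lids, medium moved onto VM7Luc4E2 cells for 24 h. Fluorescent live-cell protease readout; bidirectional curve fit.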

Structure (SMILES)	AC50	outcome
CC1=C(C)S(=O)(=O)CCS1(=O)=O	active: 100 µM	–
c1ccc2[nH]c(-c3cscn3)nc2c1	–	inactive
Cc1c2ccccc2c(C)c2c1ccc1ccccc12	inconclusive: 0.000853 µM	–
COc1cc([N+](=O)[O-])ccc1N	active: 100 µM	–
CCCCOC(=O)c1ccc(O)cc1	inconclusive: 0.000241 µM	–
Cc1ccc(C)c(C)c1	inconclusive: 0.0002 µM	–
Oc1cc2ccccc2c2ccccc12	active: 10.3 µM	–
COCC(C)OCC(C)OCC(C)O (stereo unspecified)	inconclusive: 0.0002 µM	–
